PubChem BioAssay AID1259254 | NCATS | 2017
Here is a random part of about 59,000 reagents tested. About 1,550 of all reagents (2.6%) count as active. 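G2 share is only a proxy for re-replication; each gene was hit by three separate siRNAs, and active genes were retested.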 Reagents against one gene are numbered here. Further read-outs or replicates are left out here. The record does not give: the amount of reagent.

- Screen: 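Genome-wide screen for genes that prevent DNA re-replication in cancer cells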 (primary screen)
- System: human HCT116 colorectal cancer cells
- Reagents: single siRNA against human genes
- Time to read-out: 3 days
- Measurement: 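Imaged Hoechst DNA stain sorts each cell into a cycle phase by DNA amount; per plate, G2 fraction set to 0% for non-targeting and 100% for GMNN siRNA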
- Direction: G2 robust z-score: higher = more G2 cells, more excess DNA replication
- Active means: 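Active siRNAs have a G2 robust z of 5 or more median absolute deviations over the median, which in these data means about 38% or higher of GMNN control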

G2 robust z-score, by target gene and reagent
MZT2B: #1 0.0341 inactive; #2 -1.32 inactive; #3 1.79 inactive
AQP7: #1 1.07 inactive; #2 2.02 inactive; #3 1.79 inactive
PADI3: #1 -1.31 inactive; #2 0.238 inactive; #3 -1.04 inactive
EPB41: #1 0.0997 inactive; #2 -0.709 inactive; #3 -0.844 inactive
PTPRR: #1 -0.473 inactive; #2 -0.286 inactive; #3 -0.49 inactive
FOXD4L6: #1 0.217 inactive; #2 -0.319 inactive; #3 -0.89 inactive
ZNF84: #1 -0.441 inactive; #2 -0.274 inactive; #3 0.118 inactive
SH3PXD2A: #1 -0.375 inactive; #2 -0.387 inactive; #3 -0.124 inactive
PSMA4: #1 3.45 inactive; #2 0.586 inactive; #3 5.07 active
CER1: #1 -0.243 inactive; #2 0.14 inactive; #3 -0.131 inactive
POGLUT2: #1 0.113 inactive; #2 2.13 inactive; #3 1.77 inactive
DCAF12: #1 -0.567 inactive; #2 -0.262 inactive; #3 0.208 inactive

7 entries from above in another layout.
target gene,reagent,G2 robust z-score,Outcome
AQP7,1,1.07,inactive
AQP7,2,2.02,inactive
AQP7,3,1.79,inactive
PADI3,1,-1.31,inactive
PADI3,2,0.238,inactive
PADI3,3,-1.04,inactive
EPB41,1,0.0997,inactive

The results go on.
G2 robust z-score, by target gene and reagent
USP54: #1 1.22 inactive; #2 0.777 inactive; #3 0.491 inactive
GTF2I: #1 0.253 inactive; #2 3.56 inactive; #3 1.29 inactive; #4 -0.446 inactive; #5 -1.06 inactive; #6 0.588 inactive
SLC35E1: #1 -0.204 inactive; #2 0.828 inactive; #3 -0.316 inactive
CHERP: #1 -0.986 inactive; #2 0.203 inactive; #3 0.0741 inactive
LDLRAD4: #1 -0.367 inactive; #2 1.71 inactive; #3 -0.609 inactive
RABGAP1: #1 2.57 inactive; #2 1.86 inactive; #3 1.85 inactive
LPIN3: #1 -0.818 inactive; #2 1.04 inactive; #3 -1.25 inactive
VPS26A: #1 -0.523 inactive; #2 -0.0432 inactive; #3 -0.254 inactive
OR10G8: #1 2.05 inactive; #2 -0.803 inactive; #3 0.916 inactive
GGA2: #1 -0.591 inactive; #2 -0.449 inactive; #3 0.29 inactive
